## Library screening results

Protein sequences, listed by entry. Tags and fused reporters are not part of them.
UniProt E9BF75, entry or part of it: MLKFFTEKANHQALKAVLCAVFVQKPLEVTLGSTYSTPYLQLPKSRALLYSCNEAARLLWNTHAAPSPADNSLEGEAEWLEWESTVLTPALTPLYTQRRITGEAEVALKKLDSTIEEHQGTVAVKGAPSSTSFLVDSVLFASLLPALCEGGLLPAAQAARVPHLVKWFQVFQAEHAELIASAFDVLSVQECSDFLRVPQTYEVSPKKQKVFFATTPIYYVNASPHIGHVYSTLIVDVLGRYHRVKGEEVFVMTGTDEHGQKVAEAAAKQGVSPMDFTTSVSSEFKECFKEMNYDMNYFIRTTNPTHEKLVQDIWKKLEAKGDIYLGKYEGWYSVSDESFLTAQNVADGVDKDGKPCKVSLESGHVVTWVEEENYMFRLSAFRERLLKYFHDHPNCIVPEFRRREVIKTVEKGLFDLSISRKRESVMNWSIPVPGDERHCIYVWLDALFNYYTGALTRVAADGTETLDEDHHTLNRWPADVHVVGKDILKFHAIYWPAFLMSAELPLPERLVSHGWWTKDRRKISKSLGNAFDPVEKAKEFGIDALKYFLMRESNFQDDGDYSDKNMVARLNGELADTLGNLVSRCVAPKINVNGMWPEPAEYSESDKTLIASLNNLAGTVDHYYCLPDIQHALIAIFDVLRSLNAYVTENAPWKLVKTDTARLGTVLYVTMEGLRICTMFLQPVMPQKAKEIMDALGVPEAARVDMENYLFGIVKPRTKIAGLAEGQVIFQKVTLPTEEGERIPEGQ

The values are deposited in ChEMBL (CHEMBL3988442, “University of Dundee, Small-Polar-MMV Screening Library” (2021)).

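Methionyl-tRNA synthetase (putative), Leishmania donovani (UniProt E9BF75). Primary screen of methionyl-tRNA synthetase; the read-out is not stated. The test concentration is not given. Values are per cent inhibition. Of about 68,000 compounds tested this way, about 24 (0.035%) reached 50% or more in at least one test.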

All values are in %.
The record does not define 0% and 100%; most values in the screen are far below 50% and negative numbers occur (in some assays of this library far below -100).
The compounds are a random part of those screened.

| # | structure | inhibition |
|---|---|---|
| 1 | `O=S(=O)(c1ccccc1)N1CCC2(CCCN2Cc2cccnc2)C1` (stereo not shown) | 11.94 |
| 2 | `c1cc(CN2CCOCC3(CCNCC3)C2)ccn1` | 3.297 |
| 3 | `CCOc1cccc(CCNC(=O)Cc2ccccc2O)n1` | 11.24 |
| 4 | `CC(CN1CCOCC1)OC(=O)c1cccc2cn[nH]c12` (stereo not shown) | 17.12 |
| 5 | `NC(=O)N1CCC(NCc2cc(Br)ccc2Cl)CC1` | 15.69 |
| 6 | `CCn1cc(NC(=O)C2CCC(=O)N2Cc2ccco2)cn1` (stereo not shown) | 2.638 |
| 7 | `COC(=O)c1sccc1S(=O)(=O)N1CCC(Oc2cccnn2)CC1` | 8.374 |
| 8 | `Cc1cnc(N2Cc3nccn3CC(Cn3nc(C)nc3C)C2)nc1` (stereo not shown) | 4.467 |
| 9 | `Cc1cc(CN(C)C2CCCN(Cc3noc(C)n3)C2)on1` (stereo not shown) | 5.842 |
| 10 | `CCCc1cc(N2CCCC2Cn2cc(C)cn2)n2ncnc2n1` (stereo not shown) | 15.85 |
| 11 | `COc1cccc(CN2CCC(c3nnc(-c4cnc(C)cn4)o3)C2)c1` (stereo not shown) | 10.92 |
| 12 | `COc1ccc(CC(=O)Nc2c(C)nc(N3CCCC3)nc2C)cc1` | 15.11 |
| 13 | `O=C(O)c1nnn(Cc2cccc(C(F)(F)F)c2)c1-c1ccccn1` | 9.61 |
| 14 | `O=C1OCCC1N1CCN(c2ccccn2)CC1` (stereo not shown) | 4.348 |
| 15 | `Cc1cc(CN(C)C2CCCN(c3cccnn3)C2)on1` (stereo not shown) | 21.46 |
| 16 | `O=c1cc(Cn2ccnc2)nc2n1CCCN(Cc1cccs1)C2` | 12.39 |
| 17 | `COc1ccccc1C(=O)N1C[C@@H]2CCCCN(CC(N)=O)[C@@H]2C1` | 10.11 |
| 18 | `Cc1nc(COC[C@@H]2CC[C@H]3[C@H](CCN3C(=O)C3CC3)O2)cs1` | 6.032 |
| 19 | `CC(C)OCc1ccccc1CNC(=O)C(C)S(=O)(=O)C(C)C` (stereo not shown) | 11.75 |
| 20 | `c1cc(COc2ccc(CNC3CCc4ncnn4C3)cc2)ccn1` (stereo not shown) | 11.72 |
| 21 | `CC(C)(C)c1ncc(C(=O)NCCNC(=O)c2ccc(O)cc2)s1` | 11.45 |
| 22 | `CC(C)(C)n1cc(C(=O)N2CCN(Cc3ccncc3)CC2)cn1` | 21.86 |
| 23 | `COc1c(CNCc2ccnc(N3CCCCC3)c2)c(C)nn1C` | 15.19 |
| 24 | `CCN1CCNC(=O)C12CCN(C(=O)Cc1ccccn1)CC2` | 13.74 |
| 25 | `CNC(=O)CN1CCC(OCc2ccc(Cl)c(Cl)c2)CC1` | 17.12 |
| 26 | `Cn1nc(CN2CCCC2)c2c1CN(C(=O)Nc1cccc(F)c1)CC2` | 10.8 |
| 27 | `CNC(=O)N1CC[C@@H]2CN(Cc3ccccc3)S(=O)(=O)[C@@H]2CC1` | 1.55 |
| 28 | `Cc1ccc(N2CC[C@H]3OCC[C@@]3(C(=O)N(C)C)C2)nn1` | 6.402 |
| 29 | `CC(=O)N(C)c1nc(CN2CCOC(Cn3cc(C)cn3)C2)cs1` (stereo not shown) | 7.639 |
| 30 | `COCc1ccccc1CNC(=O)CNc1cccc(Cl)c1OC` | 7.311 |
| 31 | `Cc1cnnn1Cc1ncn2c1CN(Cc1cccs1)CCC2` | 11.78 |
| 32 | `Cn1cc(CN2CCCN(C(=O)c3cc[nH]n3)CC2)cn1` | 4.294 |
| 33 | `CCN(Cc1ccc(C(C)C)cc1)C(=O)c1csc(CN(C)C)n1` | 6.138 |
| 34 | `Cc1ccc(CN2CC[C@H]3OCC[C@@H](C(=O)NCC4CC4)[C@@H]3C2)o1` | 16.3 |
| 35 | `O=C(c1ccco1)N(CC(F)(F)F)C1CCOCC1` | 13.04 |
| 36 | `COc1ccc(OCCC(=O)N2CCCC2Cn2cccn2)cc1` (stereo not shown) | 22.1 |
| 37 | `O=C(Cc1ccc2c(c1)OCCO2)NC1CC1` | 15.66 |
| 38 | `CCn1nnc2c1C(COCCN(C)C)CN(S(C)(=O)=O)C2` (stereo not shown) | 7.958 |
| 39 | `CCc1nc2n(n1)CC(NCc1nc(C)c(C)o1)CC2` (stereo not shown) | 11.94 |
| 40 | `COc1cc(-c2n[nH]c(CCN)n2)cc(OC)c1OC` | 11.83 |
| 41 | `Cc1noc(C)c1CCCNC(=O)C1CCN(C(=O)C2CCC2)CC1` | 8.741 |
| 42 | `Cn1cccc(NC(=O)NCCc2cccc(O)c2)c1=O` | -2.518 |
| 43 | `Cc1nc(C(=O)N2CCCC2c2c(C)nn(C)c2C)cs1` (stereo not shown) | 18.62 |
| 44 | `Cc1cnn(CC2CCCN2C(=O)c2ccccc2-n2cccn2)c1` (stereo not shown) | 11.97 |
| 45 | `CC(=O)N(C)c1nc(CN2CCN(Cc3nccn3C)CC2)cs1` | 3.17 |
| 46 | `Cc1nc(CN2C(=O)COC3(CCN(C(N)=O)CC3)C2C)cs1` (stereo not shown) | 17.79 |
| 47 | `Cc1ccc(CN2CCc3nnc(COCCN(C)C)n3CC2)o1` | 2.466 |
| 48 | `CCN(CC)CCn1c(=O)oc2ccccc21` | 17.89 |
| 49 | `Cc1cccc(-c2nc(C)nn2CN2CCC3(CC2)OCCO3)c1` | -1.42 |
| 50 | `Cc1cc(C(=O)NCc2cccs2)nc(N2CCCC2)n1` | 20.85 |
| 51 | `Cc1ccsc1C(=O)N1CCc2ncnc(NC(C)C)c2CC1` | 13.33 |
| 52 | `Cn1ncnc1CCNC(=O)c1cc(Cl)c(Cl)n1C` | 22.34 |
| 53 | `Cc1cccc(NC(=O)Cn2ncc(SCC(N)=O)c(Cl)c2=O)c1C` | 7.389 |
| 54 | `O=C(NCc1cccc(Cl)c1)C1=NOC2(CCNC2)C1` (stereo not shown) | 7.19 |
| 55 | `CN(C)S(=O)(=O)NCc1cccnc1Oc1ccc(F)cc1F` | 1.067 |
| 56 | `O=C(CN(C1=NCCCC1)c1ccccc1)c1ccccc1` | -1.408 |
| 57 | `Cc1csc(CNC(=O)CCCc2cccs2)n1` | 4.668 |
| 58 | `O=C([C@@H]1CCS(=O)(=O)[C@@H]2CN(c3ncccn3)C[C@@H]21)N1CCOCC1` | 9.384 |
| 59 | `O=S(=O)(NCCc1c[nH]c2cc(F)ccc12)C1CCOC1` (stereo not shown) | 5.801 |
| 60 | `CC(O)CN1CCN(Cc2cccc(C(=O)N(C)C)c2)CC1` (stereo not shown) | 9.206 |
| 61 | `O=C(C1CC1)N1CCc2nc(C3CCN(C(=O)C4CC4)C3)nc(O)c2C1` (stereo not shown) | 9.375 |
| 62 | `COc1cc(C(C)NCc2scnc2C)ccc1SC(F)F` (stereo not shown) | 10.37 |
| 63 | `CCN1CC(C(=O)NCc2cccnc2-n2cccn2)CC1=O` (stereo not shown) | 23.76 |
| 64 | `CN1CCOCC12CCN(c1nncs1)CC2` | 15.33 |
| 65 | `c1cnc(NC[C@H]2OC[C@@H]3CCN(Cc4nccs4)C[C@@H]32)nc1` | -4.658 |
| 66 | `CC(C)C1CN(C(=O)c2ccsc2)CCS1` (stereo not shown) | 11.18 |
| 67 | `O=C(c1ccc(NCc2ccco2)nc1)N1CCc2ccccc21` | 14.89 |

The first 8 entries again:

O=S(=O)(c1ccccc1)N1CCC2(CCCN2Cc2cccnc2)C1 (stereo not shown) read 11.94%.
c1cc(CN2CCOCC3(CCNCC3)C2)ccn1 read 3.297%.
CCOc1cccc(CCNC(=O)Cc2ccccc2O)n1 read 11.24%.
CC(CN1CCOCC1)OC(=O)c1cccc2cn[nH]c12 (stereo not shown) read 17.12%.
NC(=O)N1CCC(NCc2cc(Br)ccc2Cl)CC1 read 15.69%.
CCn1cc(NC(=O)C2CCC(=O)N2Cc2ccco2)cn1 (stereo not shown) read 2.638%.
COC(=O)c1sccc1S(=O)(=O)N1CCC(Oc2cccnn2)CC1 read 8.374%.
Cc1cnc(N2Cc3nccn3CC(Cn3nc(C)nc3C)C2)nc1 (stereo not shown) read 4.467%.